This note sets out measurements from PMC3527619.

The chains behind the UniProt entries cited, without tags or fusion partners. Residues count along the entry.
UniProt P07437, residues 329-444: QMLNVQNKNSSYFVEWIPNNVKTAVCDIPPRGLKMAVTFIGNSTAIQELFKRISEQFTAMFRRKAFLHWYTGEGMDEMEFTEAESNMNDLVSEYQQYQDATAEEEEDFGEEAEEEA

For this assay, the target named is T1, LexA DNA binding domain fused to full length human Centaurin-α2 (bait, pSTT91-Centaurin-α2) (human) (UniProt Q9NPF8).
T1 sequence: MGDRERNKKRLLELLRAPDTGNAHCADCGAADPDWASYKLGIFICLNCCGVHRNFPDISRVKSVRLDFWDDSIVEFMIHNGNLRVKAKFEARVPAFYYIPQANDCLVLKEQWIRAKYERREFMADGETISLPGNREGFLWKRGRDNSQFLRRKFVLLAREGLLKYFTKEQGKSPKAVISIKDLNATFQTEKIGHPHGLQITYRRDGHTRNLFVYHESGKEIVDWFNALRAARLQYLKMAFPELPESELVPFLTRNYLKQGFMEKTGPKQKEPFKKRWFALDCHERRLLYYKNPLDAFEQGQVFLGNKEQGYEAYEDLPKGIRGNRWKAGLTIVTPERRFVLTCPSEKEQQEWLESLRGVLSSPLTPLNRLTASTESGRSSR
Nature of the assay: two-hybrid; S. cerevisiae L40; baits fused to a DNA binding domain (LexA; pSTT91 or pBTM116), preys in pACT2 (GAL4 fusion); growth on selective medium and β-galactosidase filter assay at 30°C.

Results are given in words; binding and its absence hold for the method and conditions named. Some results given as binding are weak or reduced against the parent protein; the word gives no strength. Tags and fused reporters may be left off the sequences shown.

Take “Tubulin β chain class I, prey clone encoding the last 116 amino acids of the C-terminal region (pACT2, GAL4 fusion) (from UniProt P07437 329-444) (domain or fragment)”: the binding result is “binds”.
